In the supplement of paper PMC12067093, “Discovery and optimisation of a covalent ligand for TRIM25 and its application to targeted protein ubiquitination” (Chemical Science, 2025):
Some of the results follow.

Sequences of proteins named here, by UniProt entry; tags and fusion partners are left off. A change or cut given only in a name is not applied to a line headed by its entry.
UniProt P33991: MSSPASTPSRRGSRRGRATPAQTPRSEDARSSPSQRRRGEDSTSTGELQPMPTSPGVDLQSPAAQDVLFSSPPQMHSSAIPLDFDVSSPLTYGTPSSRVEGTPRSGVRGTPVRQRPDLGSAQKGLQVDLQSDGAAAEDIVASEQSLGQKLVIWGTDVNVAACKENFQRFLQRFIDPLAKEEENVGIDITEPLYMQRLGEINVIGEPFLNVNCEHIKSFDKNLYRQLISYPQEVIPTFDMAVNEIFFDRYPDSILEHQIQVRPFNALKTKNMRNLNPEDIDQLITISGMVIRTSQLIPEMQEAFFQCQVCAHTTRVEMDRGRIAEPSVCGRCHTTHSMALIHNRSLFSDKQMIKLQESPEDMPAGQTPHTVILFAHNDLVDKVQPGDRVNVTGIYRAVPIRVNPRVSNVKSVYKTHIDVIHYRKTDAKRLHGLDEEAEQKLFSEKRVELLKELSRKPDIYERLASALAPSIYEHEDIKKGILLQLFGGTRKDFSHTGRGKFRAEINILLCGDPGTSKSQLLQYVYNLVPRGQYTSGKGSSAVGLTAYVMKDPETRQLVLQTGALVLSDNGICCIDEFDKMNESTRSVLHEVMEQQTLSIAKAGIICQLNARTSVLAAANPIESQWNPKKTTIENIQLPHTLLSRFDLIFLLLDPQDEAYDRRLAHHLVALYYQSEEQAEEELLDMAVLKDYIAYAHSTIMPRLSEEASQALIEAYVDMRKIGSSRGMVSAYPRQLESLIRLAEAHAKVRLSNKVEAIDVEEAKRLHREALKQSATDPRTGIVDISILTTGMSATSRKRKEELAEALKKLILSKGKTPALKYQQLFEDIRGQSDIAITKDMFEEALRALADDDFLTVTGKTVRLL
UniProt Q9ULC4: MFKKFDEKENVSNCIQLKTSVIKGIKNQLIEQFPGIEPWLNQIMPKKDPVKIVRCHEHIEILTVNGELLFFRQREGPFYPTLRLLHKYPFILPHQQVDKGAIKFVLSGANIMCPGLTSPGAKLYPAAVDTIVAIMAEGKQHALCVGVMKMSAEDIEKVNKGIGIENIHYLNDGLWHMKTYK
UniProt P50579: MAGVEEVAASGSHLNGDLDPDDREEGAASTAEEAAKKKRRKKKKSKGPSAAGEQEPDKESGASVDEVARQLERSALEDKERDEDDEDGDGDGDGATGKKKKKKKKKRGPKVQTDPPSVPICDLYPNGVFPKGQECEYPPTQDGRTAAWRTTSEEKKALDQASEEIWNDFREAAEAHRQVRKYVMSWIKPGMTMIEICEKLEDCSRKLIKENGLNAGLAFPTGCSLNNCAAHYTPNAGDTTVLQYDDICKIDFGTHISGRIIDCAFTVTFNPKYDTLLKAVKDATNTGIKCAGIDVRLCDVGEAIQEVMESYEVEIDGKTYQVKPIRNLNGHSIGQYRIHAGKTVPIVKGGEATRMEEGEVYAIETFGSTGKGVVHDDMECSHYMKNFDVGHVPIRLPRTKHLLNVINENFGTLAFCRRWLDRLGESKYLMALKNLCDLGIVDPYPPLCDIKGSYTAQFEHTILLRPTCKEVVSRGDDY
UniProt O60244: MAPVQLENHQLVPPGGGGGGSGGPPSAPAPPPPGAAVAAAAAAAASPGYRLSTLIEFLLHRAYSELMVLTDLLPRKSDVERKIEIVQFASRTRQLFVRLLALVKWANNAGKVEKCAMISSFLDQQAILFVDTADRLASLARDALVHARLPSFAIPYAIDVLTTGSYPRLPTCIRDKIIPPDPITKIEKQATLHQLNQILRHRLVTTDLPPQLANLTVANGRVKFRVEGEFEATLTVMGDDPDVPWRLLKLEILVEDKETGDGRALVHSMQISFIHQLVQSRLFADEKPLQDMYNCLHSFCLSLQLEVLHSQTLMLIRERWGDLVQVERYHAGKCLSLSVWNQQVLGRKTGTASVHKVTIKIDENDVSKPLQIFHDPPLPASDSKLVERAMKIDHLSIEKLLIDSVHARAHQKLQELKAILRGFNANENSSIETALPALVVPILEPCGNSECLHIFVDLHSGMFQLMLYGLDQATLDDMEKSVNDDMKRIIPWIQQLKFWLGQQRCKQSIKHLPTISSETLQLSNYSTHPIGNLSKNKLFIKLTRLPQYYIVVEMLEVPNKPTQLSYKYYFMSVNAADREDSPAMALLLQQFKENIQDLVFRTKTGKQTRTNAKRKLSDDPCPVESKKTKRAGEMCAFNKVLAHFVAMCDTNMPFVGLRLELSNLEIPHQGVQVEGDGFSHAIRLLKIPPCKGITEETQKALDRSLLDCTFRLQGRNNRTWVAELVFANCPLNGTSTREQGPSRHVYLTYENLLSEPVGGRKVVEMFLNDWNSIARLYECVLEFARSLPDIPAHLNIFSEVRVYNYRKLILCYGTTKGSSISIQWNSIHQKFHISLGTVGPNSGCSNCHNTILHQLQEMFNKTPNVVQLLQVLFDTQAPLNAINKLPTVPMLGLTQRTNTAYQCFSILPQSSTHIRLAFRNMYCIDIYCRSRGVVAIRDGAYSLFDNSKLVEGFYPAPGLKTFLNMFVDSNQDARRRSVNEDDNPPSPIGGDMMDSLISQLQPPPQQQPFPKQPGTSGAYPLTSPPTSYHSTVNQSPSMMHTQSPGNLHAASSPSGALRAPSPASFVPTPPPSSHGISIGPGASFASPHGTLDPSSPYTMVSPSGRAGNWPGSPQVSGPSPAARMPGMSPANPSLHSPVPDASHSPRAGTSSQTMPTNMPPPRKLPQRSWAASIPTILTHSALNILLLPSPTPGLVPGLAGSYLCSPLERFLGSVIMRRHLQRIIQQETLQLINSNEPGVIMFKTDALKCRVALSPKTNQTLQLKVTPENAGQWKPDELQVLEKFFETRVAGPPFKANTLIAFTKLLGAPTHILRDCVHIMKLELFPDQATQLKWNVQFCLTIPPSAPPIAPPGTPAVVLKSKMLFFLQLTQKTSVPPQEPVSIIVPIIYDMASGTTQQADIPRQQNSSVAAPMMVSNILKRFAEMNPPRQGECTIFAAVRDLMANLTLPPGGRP
UniProt Q9Y316: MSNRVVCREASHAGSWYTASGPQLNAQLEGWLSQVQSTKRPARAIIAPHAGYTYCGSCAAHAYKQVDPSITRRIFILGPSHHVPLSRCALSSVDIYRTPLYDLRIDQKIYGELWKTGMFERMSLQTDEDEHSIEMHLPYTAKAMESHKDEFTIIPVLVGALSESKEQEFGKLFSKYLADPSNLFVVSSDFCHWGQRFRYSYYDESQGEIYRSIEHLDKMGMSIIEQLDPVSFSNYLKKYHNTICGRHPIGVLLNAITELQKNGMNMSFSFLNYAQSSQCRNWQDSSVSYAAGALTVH
UniProt P10620: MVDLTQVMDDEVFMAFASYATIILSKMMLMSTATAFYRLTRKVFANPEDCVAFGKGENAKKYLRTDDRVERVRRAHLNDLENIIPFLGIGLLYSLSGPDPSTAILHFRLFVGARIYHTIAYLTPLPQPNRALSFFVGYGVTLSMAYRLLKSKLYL
UniProt Q8IWI9: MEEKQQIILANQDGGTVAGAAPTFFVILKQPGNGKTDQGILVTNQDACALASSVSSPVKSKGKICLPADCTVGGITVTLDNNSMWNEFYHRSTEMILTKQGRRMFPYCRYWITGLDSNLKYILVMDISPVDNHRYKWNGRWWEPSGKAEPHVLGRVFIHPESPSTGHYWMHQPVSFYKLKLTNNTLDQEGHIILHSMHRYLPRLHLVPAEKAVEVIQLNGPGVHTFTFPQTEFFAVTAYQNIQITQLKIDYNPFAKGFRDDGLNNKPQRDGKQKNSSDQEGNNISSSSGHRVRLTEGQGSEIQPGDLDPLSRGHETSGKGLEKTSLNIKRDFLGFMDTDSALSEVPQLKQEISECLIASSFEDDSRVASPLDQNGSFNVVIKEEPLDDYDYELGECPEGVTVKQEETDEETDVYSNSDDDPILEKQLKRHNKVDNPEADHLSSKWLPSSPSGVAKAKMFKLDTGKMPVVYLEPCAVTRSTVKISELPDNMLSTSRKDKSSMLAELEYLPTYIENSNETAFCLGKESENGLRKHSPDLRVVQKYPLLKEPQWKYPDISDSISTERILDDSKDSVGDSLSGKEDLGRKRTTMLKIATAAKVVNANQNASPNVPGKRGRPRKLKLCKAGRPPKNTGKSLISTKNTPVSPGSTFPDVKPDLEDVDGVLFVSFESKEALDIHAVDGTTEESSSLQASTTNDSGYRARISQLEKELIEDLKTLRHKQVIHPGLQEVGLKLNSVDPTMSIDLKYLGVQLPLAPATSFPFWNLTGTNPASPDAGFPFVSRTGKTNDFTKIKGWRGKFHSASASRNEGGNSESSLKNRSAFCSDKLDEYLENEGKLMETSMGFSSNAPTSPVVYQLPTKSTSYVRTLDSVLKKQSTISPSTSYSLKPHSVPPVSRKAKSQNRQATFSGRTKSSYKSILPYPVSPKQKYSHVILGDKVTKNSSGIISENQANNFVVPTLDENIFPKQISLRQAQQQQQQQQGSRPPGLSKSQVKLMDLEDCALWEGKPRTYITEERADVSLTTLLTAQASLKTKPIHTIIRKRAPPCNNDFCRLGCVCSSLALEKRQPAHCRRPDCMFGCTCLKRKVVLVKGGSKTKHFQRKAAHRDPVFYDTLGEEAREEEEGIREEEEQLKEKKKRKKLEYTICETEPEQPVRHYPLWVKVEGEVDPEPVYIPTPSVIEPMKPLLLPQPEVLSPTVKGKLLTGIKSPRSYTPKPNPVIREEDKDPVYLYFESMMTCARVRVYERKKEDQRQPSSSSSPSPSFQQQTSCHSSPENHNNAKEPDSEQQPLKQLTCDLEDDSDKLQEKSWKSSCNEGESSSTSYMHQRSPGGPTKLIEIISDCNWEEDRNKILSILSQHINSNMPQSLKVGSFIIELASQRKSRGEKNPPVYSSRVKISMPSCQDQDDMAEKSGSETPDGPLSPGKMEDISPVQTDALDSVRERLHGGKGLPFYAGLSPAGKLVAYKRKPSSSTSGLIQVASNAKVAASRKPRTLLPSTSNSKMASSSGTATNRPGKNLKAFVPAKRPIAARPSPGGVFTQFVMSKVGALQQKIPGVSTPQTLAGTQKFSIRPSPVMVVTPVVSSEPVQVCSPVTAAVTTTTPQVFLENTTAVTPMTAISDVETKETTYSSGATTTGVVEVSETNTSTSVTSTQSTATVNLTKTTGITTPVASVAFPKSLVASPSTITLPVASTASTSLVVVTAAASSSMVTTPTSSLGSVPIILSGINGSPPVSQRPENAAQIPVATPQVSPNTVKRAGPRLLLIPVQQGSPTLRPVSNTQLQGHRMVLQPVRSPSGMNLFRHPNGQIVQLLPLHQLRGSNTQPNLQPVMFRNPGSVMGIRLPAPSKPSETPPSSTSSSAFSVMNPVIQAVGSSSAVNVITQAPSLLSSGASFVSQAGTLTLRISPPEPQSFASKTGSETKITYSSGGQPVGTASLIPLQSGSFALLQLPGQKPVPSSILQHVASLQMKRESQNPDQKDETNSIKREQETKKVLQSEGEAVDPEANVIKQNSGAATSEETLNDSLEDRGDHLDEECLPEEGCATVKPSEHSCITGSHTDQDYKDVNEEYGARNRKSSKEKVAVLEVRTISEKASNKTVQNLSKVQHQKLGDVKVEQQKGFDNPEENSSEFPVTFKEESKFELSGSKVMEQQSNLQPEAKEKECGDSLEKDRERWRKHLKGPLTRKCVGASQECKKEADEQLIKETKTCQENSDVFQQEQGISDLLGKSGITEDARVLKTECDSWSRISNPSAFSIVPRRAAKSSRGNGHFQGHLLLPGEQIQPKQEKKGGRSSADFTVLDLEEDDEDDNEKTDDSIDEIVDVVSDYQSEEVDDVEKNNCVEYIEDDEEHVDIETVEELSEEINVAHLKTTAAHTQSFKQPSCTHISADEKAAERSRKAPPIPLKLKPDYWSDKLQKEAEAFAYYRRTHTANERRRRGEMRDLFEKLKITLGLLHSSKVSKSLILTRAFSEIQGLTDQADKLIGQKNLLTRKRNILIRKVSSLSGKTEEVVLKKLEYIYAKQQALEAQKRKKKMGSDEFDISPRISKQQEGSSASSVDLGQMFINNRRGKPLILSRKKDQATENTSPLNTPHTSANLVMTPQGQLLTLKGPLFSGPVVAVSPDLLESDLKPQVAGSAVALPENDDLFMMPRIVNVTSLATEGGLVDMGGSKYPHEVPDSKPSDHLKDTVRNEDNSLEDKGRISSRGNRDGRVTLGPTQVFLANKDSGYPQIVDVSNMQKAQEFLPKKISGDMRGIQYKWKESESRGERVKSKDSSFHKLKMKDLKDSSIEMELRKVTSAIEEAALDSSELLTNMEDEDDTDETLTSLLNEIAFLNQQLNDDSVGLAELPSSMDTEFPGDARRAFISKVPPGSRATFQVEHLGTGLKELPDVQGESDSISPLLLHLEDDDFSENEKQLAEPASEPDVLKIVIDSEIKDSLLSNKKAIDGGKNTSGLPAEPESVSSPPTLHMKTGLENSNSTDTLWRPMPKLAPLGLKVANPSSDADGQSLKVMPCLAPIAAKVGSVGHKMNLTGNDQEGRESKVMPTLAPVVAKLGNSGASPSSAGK

Compound: Cc1cc(ccc1-c1ccccc1)C(=O)N1CCCN(CC1)C(=O)CCl [compound 10]
Experiment: probe-labelled cysteine peptide fold change vs DMSO (competition) (log2 fold change); higher = less target engagement (more negative = stronger competition)
Conditions: THP-1, incubation time: 4 h
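Also: competitive profiling in live THP-1 cells: cysteine peptides tagged with an iodoacetamide desthiobiotin (IA-DTB) probe, intensity after compound treatment relative to DMSO-treated cells.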

| Target | probe-labelled cysteine peptide fold change (10 µM) | probe-labelled cysteine peptide fold change (50 µM) |
| --- | --- | --- |
| MEPCE_Q7L2J0_463_GRDVLDLGCNVGHLTLSIACK (UniProt Q7L2J0) | 0.00412 | -0.0585 |
| MELTF_P08582_476_SCHAGFGSPAGWDVPVGALIQR (UniProt P08582) | 0.0498 | -0.186 |
| MCM4_P33991_306_TSQLIPEMQEAFFQCQVCAHTTR (UniProt P33991) | 0.177 | -0.0925 |
| MDN1_Q9NU22_2784_EVQTVSEHIQNCLGSQTGGFAGIK (UniProt Q9NU22) | 0.231 | 0.12 |
| METTL3_Q86U44_500_GNPQGFNQGLDCDVIVAEVR (UniProt Q86U44) | 0.0318 | -0.1 |
| MEFV_O15553_355_CQDSHER (UniProt O15553) | -0.0387 | -0.245 |
| METAP1_P53582_22+25_LQCPTCIK (UniProt P53582) | -0.0372 | -0.571 |
| MEN1_O00255_414_EAASLLEAGEERPGEQSQGTQSQGSALQDPECFAHLLR (UniProt O00255) | 0.305 | 0.393 |
| MCM3_P25205_407_GVVCIDEFDK (UniProt P25205) | -0.219 | -0.0599 |
| MCM6_Q14566_393_GDINVCIVGDPSTAK (UniProt Q14566) | 0.134 | 0.131 |
| MCM3_P25205_319_AILCLLLGGVERDLENGSHIR (UniProt P25205) | 0.0239 | -0.0698 |
| MED1_Q15648_302_WTPSFSSITSANSVDLPACFFLK (UniProt Q15648) | 0.18 | 0.168 |
| MCM6_Q14566_158+161_THPVHPELVSGTFLCLDCQTVIR (UniProt Q14566) | -0.0458 | -0.416 |
| METTL18_O95568_48_CSAEQFDLPQDHLWEHK (UniProt O95568) | -0.36 | -0.308 |
| MDN1_Q9NU22_1332_KLCPQSLFSK (UniProt Q9NU22) | -0.363 | -0.556 |
| METAP1_P53582_255_LVQTTYECLMQAIDAVK (UniProt P53582) | 0.366 | 0.305 |
| MCM6_Q14566_351_NLYHNLCTSLFPTIHGNDEVK (UniProt Q14566) | 0.091 | 0.276 |
| MDN1_Q9NU22_95_LCVSMSK (UniProt Q9NU22) | -0.101 | -0.304 |
| MCTS1_Q9ULC4_55_CHEHIEILTVNGELLFFR (UniProt Q9ULC4) | 0.085 | 0.11 |
| MED15_Q96RN5_660_TFVPAMTAIHGPPITAPVVCTR (UniProt Q96RN5) | 0.12 | -0.328 |
| MCTS1_Q9ULC4_144_QHALCVGVMK (UniProt Q9ULC4) | 0.104 | -0.154 |

| Target | probe-labelled cysteine peptide fold change (10 µM) | probe-labelled cysteine peptide fold change (50 µM) |
| --- | --- | --- |
| MCM4_P33991_331_CHTTHSMALIHNR (UniProt P33991) | 0.169 | -0.0384 |
| MCEE_Q96PE7_166_DCGGVLVELEQA (UniProt Q96PE7) | -0.0643 | 0.17 |
| ME2_P23368_198_CLPVCIDVGTDNIALLK (UniProt P23368) | 0.307 | 0.242 |
| MCCC2_Q9HCC0_392_KGTHFVQLCCQR (UniProt Q9HCC0) | -0.0989 | -0.324 |
| MCU_Q8NE86_191_TLVQQLYTTLCIEQHQLNK (UniProt Q8NE86) | 0.0411 | -0.0406 |
| MCL1_Q07820_286_TINQESCIEPLAESITDVLVR (UniProt Q07820) | -0.373 | 0.683 |
| METAP2_P50579_468_GSYTAQFEHTILLRPTCK (UniProt P50579) | -0.244 | 0.0676 |
| MCCC2_Q9HCC0_267_AATGEEVSAEDLGGADLHCRK (UniProt Q9HCC0) | -0.591 | -1.49 |
| MCM3AP_O60318_931_DCEEATDFLTCHGLTVSDGCVELNR (UniProt O60318) | -0.262 | -0.0698 |
| MGRN1_O60291_297_HLCLCTSCADTLR (UniProt O60291) | -0.168 | -0.164 |
| MCM6_Q14566_158_THPVHPELVSGTFLCLDCQTVIRDVEQQFK (UniProt Q14566) | 0.0358 | -0.522 |
| MDN1_Q9NU22_1105_TSLIQWLAAATGNHCVR (UniProt Q9NU22) | -0.0864 | 0.854 |
| MCM3_P25205_360_YVLCTAPR (UniProt P25205) | -0.0772 | -0.00978 |
| METTL14_Q9HCE5_120_GTQSLNPHNDYCQHFVDTGHRPQNFIR (UniProt Q9HCE5) | 0.0798 | 0.361 |
| MCM3AP_O60318_1864_GASAEELLAQCLSSSLLLEK (UniProt O60318) | -0.168 | 0.342 |
| MED14_O60244_1433_QGECTIFAAVR (UniProt O60244) | -0.0337 | -0.216 |
| MED24_O75448_336_DFTEDVNCAFEFLLK (UniProt O75448) | -0.0117 | -0.0218 |
| METTL13_Q8N6R0_90_ECNATR (UniProt Q8N6R0) | 0.0609 | -0.191 |
| MCRS1_Q96EZ8_84_CSGSEPSSSEK (UniProt Q96EZ8) | -0.0254 | -0.104 |
| MCM4_P33991_306+309_TSQLIPEMQEAFFQCQVCAHTTR (UniProt P33991) | 0.0367 | -0.127 |
| MELTF_P08582_545_CVGNSQER (UniProt P08582) | 0.144 | 0.00114 |

| Target | probe-labelled cysteine peptide fold change (10 µM) | probe-labelled cysteine peptide fold change (50 µM) |
| --- | --- | --- |
| MCM3_P25205_123_TLTSCFLSCVVCVEGIVTK (UniProt P25205) | -0.231 | -0.839 |
| MCCC2_Q9HCC0_391+392_KGTHFVQLCCQR (UniProt Q9HCC0) | 0.121 | 0.191 |
| METTL2B_Q6P1Q9_233_CFAFVHDLCDEEK (UniProt Q6P1Q9) | 0.27 | 0.0339 |
| MDC1_Q14676_26_CNVEPVGR (UniProt Q14676) | -0.22 | -0.341 |
| MCM4_P33991_572_QLVLQTGALVLSDNGICCIDEFDK (UniProt P33991) | 0.0291 | -0.025 |
| MDH1_P40925_137_VIVVGNPANTNCLTASK (UniProt P40925) | -0.101 | -0.0447 |
| MED7_O43513_197_TEPMDADDSNNCTGQNEHQR (UniProt O43513) | -0.198 | 0.0445 |
| MEMO1_Q9Y316_88_CALSSVDIYR (UniProt Q9Y316) | 0.112 | -0.0554 |
| MCM3AP_O60318_1945_EQLQLSEATGTCLGER (UniProt O60318) | -0.101 | -0.117 |
| ME2_P23368_274_YCTFNDDIQGTAAVALAGLLAAQK (UniProt P23368) | 0.0399 | 0.311 |
| MED14_O60244_779_LYECVLEFAR (UniProt O60244) | 0.057 | 0.184 |
| MED6_O75586_137_VLTAVHGIQSAFDEAMSYCR (UniProt O75586) | 0.0128 | 0.127 |
| MFN2_O95140_132_VLPSGIGHTTNCFLR (UniProt O95140) | -0.13 | -0.261 |
| METAP2_P50579_121_VQTDPPSVPICDLYPNGVFPK (UniProt P50579) | -0.176 | 0.0192 |
| MDN1_Q9NU22_1394_ALEFGEPVLLVGDTGCGK (UniProt Q9NU22) | -0.295 | 0.258 |
| MEFV_O15553_315+327_CHAQEGDPVDGTCVR (UniProt O15553) | -0.668 | -0.706 |
| MCM5_P33992_221_CVDFQTLK (UniProt P33992) | 0.05 | -0.397 |
| MEFV_O15553_670_TAWILGACK (UniProt O15553) | -0.208 | -0.302 |
| MCM6_Q14566_393_TTGEGTSLRGDINVCIVGDPSTAK (UniProt Q14566) | -0.173 | -0.351 |
| MDN1_Q9NU22_3195_ELLCQLLTSLHHFVGEGESK (UniProt Q9NU22) | -0.696 | -1.2 |
| MGST1_P10620_50_KVFANPEDCVAFGK (UniProt P10620) | -0.143 | 0.0291 |

| Target | probe-labelled cysteine peptide fold change (10 µM) | probe-labelled cysteine peptide fold change (50 µM) |
| --- | --- | --- |
| MEMO1_Q9Y316_58_AIIAPHAGYTYCGSCAAHAYK (UniProt Q9Y316) | 0.0808 | 0.0468 |
| METTL3_Q86U44_336_YVHYEIDACMDSEAPGSK (UniProt Q86U44) | 0.0389 | 0.0106 |
| ME2_P23368_198+202_CLPVCIDVGTDNIALLK (UniProt P23368) | -0.0482 | -0.211 |
| MED14_O60244_729_TWVAELVFANCPLNGTSTR (UniProt O60244) | -0.0181 | -0.242 |
| MED23_Q9ULK4_284_DMVCNMLGLNK (UniProt Q9ULK4) | 0.0951 | -0.279 |
| METAP2_P50579_448_NLCDLGIVDPYPPLCDIK (UniProt P50579) | 0.0214 | 0.133 |
| MED1_Q15648_424_HQVAYNTLIGSCVK (UniProt Q15648) | -0.223 | 0.359 |
| MCM3_P25205_119+123+126_TLTSCFLSCVVCVEGIVTK (UniProt P25205) | -0.0216 | -1.13 |
| MGST1_P10620_50_VFANPEDCVAFGKGENAK (UniProt P10620) | -0.242 | -0.298 |
| MCMBP_Q9BTE3_3_PCGEDWLSHPLGIVQGFFAQNGVNPDWEK (UniProt Q9BTE3) | -0.562 | -0.982 |
| METTL7B_Q6UX53_79_VALLELGCGTGANFQFYPPGCR (UniProt Q6UX53) | 0.0485 | 0.183 |
| MCM6_Q14566_637_MHCCDEVQPK (UniProt Q14566) | -0.06 | -0.544 |
| MCM4_P33991_309_TSQLIPEMQEAFFQCQVCAHTTR (UniProt P33991) | 0.209 | -0.125 |
| METAP1_P53582_22_LQCPTCIK (UniProt P53582) | 0.0622 | -0.162 |
| MGAT2_Q10469_386_KTCRPSTQSAQIESLLNNNK (UniProt Q10469) | -0.194 | -0.657 |
| MDN1_Q9NU22_4604_HLFFSQSCSLLVR (UniProt Q9NU22) | -0.00746 | 0.194 |
| MGA_Q8IWI9_1238_EEDKDPVYLYFESMMTCAR (UniProt Q8IWI9) | 0.0142 | 0.189 |
| MED1_Q15648_135_VAHHGENPVSCPELVQQLR (UniProt Q15648) | -0.0375 | -0.395 |
| MGA_Q8IWI9_355_QEISECLIASSFEDDSR (UniProt Q8IWI9) | 0.127 | -0.409 |
| MEFV_O15553_375_KSPGSLSPQPLPQCK (UniProt O15553) | -0.229 | -1.2 |

Pulled one by one from above (four):

| Target | probe-labelled cysteine peptide fold change (10 µM) | probe-labelled cysteine peptide fold change (50 µM) |
| --- | --- | --- |
| MEMO1_Q9Y316_58_AIIAPHAGYTYCGSCAAHAYK (UniProt Q9Y316) | 0.0808 | 0.0468 |
| MGST1_P10620_50_VFANPEDCVAFGKGENAK (UniProt P10620) | -0.242 | -0.298 |
| MED1_Q15648_135_VAHHGENPVSCPELVQQLR (UniProt Q15648) | -0.0375 | -0.395 |
| MGA_Q8IWI9_1238_EEDKDPVYLYFESMMTCAR (UniProt Q8IWI9) | 0.0142 | 0.189 |
